Results deposited as PubChem BioAssay AID743121 (NCATS, 2013)
In all, the deposit lists about 26,000 reagents; this is an unselected part. Of all reagents, 167 (0.63%) are marked active. 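Calls are per gene from RSA p-values that are not deposited; an individual active-marked siRNA can sensitise only weakly.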 Reagents against one gene are numbered here.

Test: 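Genes whose silencing strengthens cell killing by camptothecin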 (primary screen)
Cells: MDA-MB-231 cells, a human breast cancer line
Reagent: single siRNA against human genes, 20 nM siRNA (0.8 pmol per well)
Timing: 120 h (drug added 48 h after transfection, read 72 h later)
Conditions: camptothecin 20 nM (about EC30) for 72 h; vehicle 0.1% DMSO in parallel plates
Measured: 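Cell viability by ATP luminescence (CellTiter-Glo) as % of non-targeting siRNA wells, and the log2 ratio of viability without drug over viability with camptothecin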
Scale: log2 vehicle/camptothecin viability: higher = stronger sensitisation to camptothecin; viability with camptothecin and viability without drug: higher = more viable cells
Active means: 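Active genes have an RSA gene-level p-value below 0.001, computed from the ratios of their separate siRNAs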

| Target gene | reagent no. | log2 vehicle/camptothecin viability | viability with camptothecin (% of control) | viability without drug (% of control) | outcome |
| --- | --- | --- | --- | --- | --- |
| IARS2 | 1 | -0.089 | 76.1 | 71.5 | inactive |
| IARS2 | 2 | -0.304 | 109 | 88 | inactive |
| IARS2 | 3 | -0.406 | 57.4 | 43.3 | inactive |
| GSTP1 | 1 | -0.0837 | 17.4 | 16.4 | inactive |
| GSTP1 | 2 | -0.191 | 77.2 | 67.6 | inactive |
| GSTP1 | 3 | 0.043 | 81 | 83.4 | inactive |
| GSTP1 | 4 | -0.389 | 126 | 96.2 | inactive |
| KCNS2 | 1 | 0.139 | 78.5 | 86.5 | inactive |
| KCNS2 | 2 | -0.2 | 56.9 | 49.5 | inactive |
| KCNS2 | 3 | 0.0769 | 93.4 | 98.5 | inactive |
| KCNS2 | 4 | -0.181 | 65.7 | 57.9 | inactive |

The list goes on; the last 2 above are carried over.
| Target gene | reagent no. | log2 vehicle/camptothecin viability | viability with camptothecin (% of control) | viability without drug (% of control) | outcome |
| --- | --- | --- | --- | --- | --- |
| KCNS2 | 3 | 0.0769 | 93.4 | 98.5 | inactive |
| KCNS2 | 4 | -0.181 | 65.7 | 57.9 | inactive |
| FH | 1 | -0.277 | 64.4 | 53.1 | inactive |
| FH | 2 | 0.0656 | 122 | 128 | inactive |
| FH | 3 | -0.136 | 54.2 | 49.3 | inactive |
| MS4A3 | 1 | -0.0961 | 63.1 | 59.1 | inactive |
| MS4A3 | 2 | 0.388 | 48.5 | 63.4 | inactive |
| MS4A3 | 3 | 0.155 | 70.8 | 78.8 | inactive |
| HRH4 | 1 | -0.152 | 107 | 96 | inactive |
| HRH4 | 2 | -0.21 | 97.2 | 84.1 | inactive |
| HRH4 | 3 | -0.387 | 91.9 | 70.3 | inactive |
| HRH4 | 4 | -0.371 | 78.6 | 60.7 | inactive |
| FCN3 | 1 | -0.542 | 119 | 81.7 | inactive |
| FCN3 | 2 | -0.582 | 89.2 | 59.6 | inactive |
| FCN3 | 3 | -0.462 | 78.1 | 56.7 | inactive |
| FCN3 | 4 | -0.165 | 77.1 | 68.8 | inactive |
| CXCL2 | 1 | -0.301 | 106 | 85.7 | inactive |
| CXCL2 | 2 | -0.0417 | 106 | 103 | inactive |
| CXCL2 | 3 | -0.093 | 119 | 111 | inactive |
| CXCL2 | 4 | -0.194 | 107 | 93.8 | inactive |
